# PubChem BioAssay AID493014 (National Center for Advancing Translational Sciences (NCATS), 2011)
# The list shows a part of the results. These are further read-outs of the screen, such as a control signal, another cell line or another target. No call is given for them. Compounds called inactive in the main read-out are mostly missing here. The note in brackets gives the kind of curve behind each potency; many fits are weak. Numbered stars: 1 amine (or outer) side, 2 acyl side, 3 side chain; on linkers, the order of the positions; unused ones are H or OH. Square brackets hold non-standard residues; d marks the D form. Peptide text beside a SMILES is read from it. X2 = CCC[C@@H](N[*:1])[C@H](C)C(=O)O[C@H](C(=O)[*:2])[C@@H](C)CC; X1 = CC(N[*:1])C(=O)C(C)(C)C(=O)[*:2]; NMeY = CN[C@@H](Cc1ccc(O)cc1)C(=O)O; NMeL = CN[C@@H](CC(C)C)C(=O)O; NMeV = CN[C@H](C(=O)O)C(C)C; NMeA = CN[C@@H](C)C(=O)O
# Experiment: qHTS Assay to Find Inhibitors of Chronic Active B-Cell Receptor Signaling
# Details: ABC-DLBCL IkBa-CBG/CBR reporter, luminescence ratio (green luciferase fused to IkBa over red control in TMD8 lymphoma cells), 4 h
# How it was run: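 Compounds up to 46 uM were incubated four hours with TMD8 cells whose green CBG68 luciferase is fused to IkappaBalpha; red CBR luminescence normalised the signal, and concentration-effect curves were fitted to fusion, red and ratio data.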
# [1] = measured here: CBR red luminescence, cell number
# [2] = measured here: IkBa-CBG green luminescence
SMILES,AC50 [1],AC50 [2]
CCCCn1c2c(c3ccccc31)CCc1nonc1-2,"29.1 µM [rising, single point]",
COc1cccc2sc(Nc3nnc(-c4ccccc4Cl)o3)nc12,"7.31 µM [falling, partial curve]","20.6 µM [falling, partial curve, poor fit]"
CCSc1ccccc1-c1nc(-c2ccncc2)no1,"5.62 µM [rising, single point]",
CCOc1ccc(S(=O)(=O)Nc2cnc3ccccc3c2)cc1,"3.16 µM [falling, single point]",
Cc1cccc(/C(N)=N/OC(=O)CCC2CCCCC2)c1,"8.2 µM [rising, partial curve]",
C(=N\c1ncnc2sccc12)/NOCc1ccccc1,"11.6 µM [falling, partial curve, poor fit]","16.4 µM [rising, partial curve, poor fit]"
CCOC(=O)C(CC)Sc1nnc2[nH]c(=O)cc(C)n12 (stereo not drawn),"7.94 µM [rising, partial curve, poor fit]",
COC(=O)c1ccc(CNC(=O)c2ccc(OCC(=O)N3CCOCC3)c(OC)c2)cc1,"0.58 µM [rising, partial curve, poor fit]",
CCCCC(C(=O)NC1CCCC1)N(C(=O)c1snc(C(N)=O)c1N)c1ccc(OCC)cc1 (stereo not drawn),"0.794 µM [falling, full curve, poor fit]",
CCCc1cc2c(=O)c(-c3ccccn3)c(C)oc2cc1O,"31.6 µM [rising, single point]",
O=C(CSC1=NS(=O)(=O)c2ccccc2N1)Nc1nccs1,"8.2 µM [falling, partial curve, poor fit]",
Nc1ccccc1C(=O)NNC(=O)C(=O)/C=C(\O)c1ccccc1,"2 µM [falling, full curve]",
CSC1=NSC2=NC(=O)/C(=C/c3coc4ccccc4c3=O)C(=N)N12,"14.6 µM [falling, partial curve]",
O=C(c1ccccc1F)N(Cc1cccnc1)Cc1cc2cc3c(cc2[nH]c1=O)OCCO3,"35.5 µM [rising, single point]",
O=C(Nc1ccc(Cl)cc1)c1ccc(Br)cc1F,"15.8 µM [falling, single point]",
NC(=O)NC(=O)COC(=O)c1ccc2noc(-c3ccccc3)c2c1,"11.2 µM [falling, partial curve, poor fit]",
Cc1ccccc1NC1=C(Cl)C(=O)OC1OC(=O)c1ccccc1C (stereo not drawn),"35.5 µM [falling, single point]",
O=C(NCC(=O)N1CCCC1)c1ccc(Br)cc1,"15.8 µM [rising, partial curve, poor fit]",
CCN(C(=O)c1cc2cc(OC)ccc2oc1=O)c1ccccc1,"3.66 µM [rising, full curve, poor fit]",
Cc1cccc(Cn2c(N(C)CCO)nc3c2c(=O)[nH]c(=O)n3C)c1,"6.51 µM [rising, single point]",

SMILES,AC50 [1],AC50 [2]
CCOC(=O)N1CCC(N2C(=O)c3ccccc3C2Nc2c(C)cccc2C)CC1 (stereo not drawn),"0.58 µM [falling, partial curve, poor fit]",
COc1ccc(/C=N/Nc2nnc(C)n2N)cc1OC,"35.5 µM [falling, single point]",
COc1cc(C)nc(OCCNS(=O)(=O)c2cc(C)ccc2C)n1,"0.651 µM [falling, full curve, poor fit]",
CCC[C@H]1NC(=O)[C@H](C)N(C)C(=O)C(C)(C)C(=O)C(C)NC(=O)[C@H](Cc2ccc(OC)cc2)N(C)C(=O)[C@H](C(C)C)N(C)C(=O)CNC(=O)[C@H](CC(C)C)N(C)C(=O)CNC(=O)[C@H]([C@@H](C)CC)OC(=O)[C@H]1C (stereo partly drawn) (cyclo(G[NMeL]G[NMeV][NMeY](Me)[X1][NMeA][X2])),"0.259 µM [rising, full curve, poor fit]",
Cc1ccccc1NC(=S)NCCSc1ccc(Cl)cc1,"6.31 µM [rising, single point]",
O=C(N/N=C/c1cn(-c2cccs2)nc1-c1ccccc1)c1ccccc1Cl,"11.6 µM [falling, partial curve]","3.66 µM [rising, full curve, poor fit]"
CCc1ccc(NC(=O)CSc2nc3[nH]ncc3c(=O)[nH]2)cc1,"15.8 µM [falling, partial curve, poor fit]",
CCOc1cc(/C=C2\SC(=O)N=C2N)ccc1O,"11.6 µM [falling, partial curve]",
Cc1cccc(C(=O)Nc2sc3c(c2C(=O)O)CCCC3)c1,"0.282 µM [falling, full curve]",
COc1ccc(-n2c3c(cc(C(=O)Nc4cccc(C)n4)c2=O)C(=O)CC(C)(C)C3)cc1,"22.4 µM [falling, single point]",
O=[N+]([O-])c1cccc(C2NCC(c3ccccc3Cl)c3c2[nH]c2ccccc32)c1 (stereo not drawn),"11.2 µM [falling, partial curve]",
CCCCCCCC[n+]1cccc2c3ccccc3ccc21,"10 µM [falling, partial curve]","12.6 µM [rising, partial curve, poor fit]"
CCNc1nc(Oc2ccc(C(=O)OC)cc2)nc(N2CCOCC2)n1,"14.1 µM [falling, single point]",
CC(=O)c1c(C)[nH]c(C(=O)NCc2ccc(F)cc2)c1C,"2.82 µM [rising, partial curve, poor fit]",
CC(C)N(C(=O)COC(=O)c1cc(Cl)cc(Cl)c1N)C(C)C,"29.1 µM [rising, single point]",
O=C(NCC(c1cccs1)N1CCOCC1)c1cc(-c2ccc(F)cc2)nc2ccccc12 (stereo not drawn),"35.5 µM [falling, single point]",
COCCCn1c(=O)c2ccccc2n(Cc2ccccc2C)c1=O,"35.5 µM [rising, single point]",
COc1ccccc1CNC(=O)C1Cc2ccccc2C(=O)O1 (stereo not drawn),"20 µM [falling, single point]",
Cn1cccc1C(=O)N1CCN(c2cccc(C(F)(F)F)c2)CC1,"29.1 µM [rising, single point]",

# Molecules above containing bromine (two):
SMILES,AC50 [1],AC50 [2]
O=C(Nc1ccc(Cl)cc1)c1ccc(Br)cc1F,"15.8 µM [falling, single point]",
O=C(NCC(=O)N1CCCC1)c1ccc(Br)cc1,"15.8 µM [rising, partial curve, poor fit]",
